System: Hepatocytes
Test: extracorporeal hepatic metabolism in the hepatocyte bioreactor attached to an ahepatic pig
Type: in vitro ADME, outbred Yorkshire/white pig
Conditions: administered into the ultrafiltrate at the inlet of the bioreactor; metabolites 7-OH-coumarin and monoethylglycinexylidide (MEGX) measured at the outlets of the bioreactors

With `CCN(CC)CC(=O)Nc1c(C)cccc1C` [lidocaine] the metabolism was “Significant metabolism”.
